Experimental data reported in the RNAGym collection of RNA variant scans (doi:10.1126/science.aae0568).
Variants at the floor of the assay are shown more often than the library holds them.

B1: tRNA (parent)
chain: GUUCCGUUGGCGUAAUGGUAACGCGUCUCCCUCCUAAGGAGAAGACUGCGGGUUCGAGUCCCGUACGGAACG

Variants of: B1
Assay: yeast fitness relative to wild type (ratio to wild type); higher = fitter; tRNA-Arg(CCU), competitive growth, 37 C, YPD
Outline: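 Start and end populations of a pooled competition were compared by 100-nucleotide paired-end sequencing of gene amplicons. The Saccharomyces cerevisiae strains carried tRNA-Arg(CCU) gene variants at the native genomic locus, synthesised with a 3% per-site mutation rate at 69 sites, and competed in YPD at 37°C for 24 hours in six parallel replicates. Darwinian fitness relative to wild type was based on the change in genotype frequencies. Genotypes required ≥ 100 starting reads, and estimates < 0.5 were set to 0.5.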

Variant	yeast fitness
G12C C29U C33U G51A G56A G63C	≤ 0.5
C30U C55U G68C	≤ 0.5
U7A G50C A57C C61U	≤ 0.5
C27A C55A C61U G68A A70G	≤ 0.5
C55A A57C C60G	≤ 0.5
G38A A42G C66A	≤ 0.5
U7A A20C A21G G23A	0.65
C22G A42G U59C	≤ 0.5
G6A G9C A15G C49U	≤ 0.5
U3G C5G G10A C30G C31G C49A C60U G67A	≤ 0.5
G9A C34G C66A	≤ 0.5
G38A G56A C66G	≤ 0.5
C5A A20U C27A A42G A43G C46U A57C G67C	≤ 0.5
C27G G41A A42C U59A	≤ 0.5
U8C U26A A43U A70U	0.675
A36C A40C G50A	≤ 0.5
G51A C55U A65C	≤ 0.5
G25C C31U A69U	0.77
G23C U26G C33G A45C	≤ 0.5
G12A C24A C34A C49A G63U G67A	≤ 0.5
G6A C62A A70C	0.636
G12U C33U C34G	≤ 0.5
G12C G18C G50C	≤ 0.5
C11A A42U A65G C66G G68A	≤ 0.5

Variant	yeast fitness
C11U A15G C24G C27G C31U C55U	≤ 0.5
U16C U59A	0.852
G6C A20U A21G A37U	≤ 0.5
C29G A36U C49U C60U	≤ 0.5
G9A A15U C33G G39A G67C	≤ 0.5
U13C G23C A36C G39A A43G	≤ 0.5
G6A U16G A21G A40G A42U	0.535
U2A G12A A20U A40C	≤ 0.5
C22U C60U C61A	≤ 0.5
U2C G39C G48C C61U	≤ 0.5
G9U C27U C29A C49G	≤ 0.5
U7A G10A G41C A42U C46A A65G	≤ 0.5
U7C A21C A40C U53G C62U	≤ 0.5
A37G G38C A65U	≤ 0.5
U3A C4U C33U C61A	≤ 0.5
C22A C33U	0.604
G12C G25C C66G	≤ 0.5
U7C A37G A42C A65C A69C	≤ 0.5
G12C A14G G18A C33G A65U	≤ 0.5
C24A C33U C34A A43U C46G C55U	≤ 0.5
C4G G38C C60U U64A	≤ 0.5
C11A U16C U32G C49G C55A A65G	≤ 0.5
C22U U32G C34U A40G U47C	≤ 0.5
C27U C33U A40C C55A A65G	0.503

Variant	yeast fitness
C24G A37U C49U U59A	≤ 0.5
U13A A40G U47G	≤ 0.5
C5U C30U G39C	≤ 0.5
G12A C27G C29U A37U	≤ 0.5
G6A C11U C27A U28A A40G	≤ 0.5
G12C C29U A45G G51A G56A G63C	≤ 0.5
G12C U13C A20C C24G C30U C46U G52C	≤ 0.5
C24U C27A G50U	≤ 0.5
A15G G25C A42G C66G	≤ 0.5
C11G C34A C46U	≤ 0.5
C4U C11G C34U	0.551
U2A C5G	0.728
G10A A36C	≤ 0.5
C31U U54A G56C	≤ 0.5
G10C U47A G48A	0.568
C29G G38C A70C	≤ 0.5
U3C G48C C66U	0.761
C31U C46G G50A C61U	0.649
U16C C24G A42C C62U	≤ 0.5
A20U C62U A65C	0.682
C5U A21U U26G C27U C29G G50C	≤ 0.5
G12C A14U U26A	≤ 0.5
U2G G9C A20G A42C C46G C49U A69C	0.576
A20G G38A C60G A70C	≤ 0.5

Variant	yeast fitness
U2G G6A A70U	≤ 0.5
C11U G18C C29A G67C	≤ 0.5
U2C U28A A69U	≤ 0.5
U2C C30G A69C	≤ 0.5
C4U A37C	0.884
C5G C33G G41A G63A A69C	≤ 0.5
U2A U16C G25C	≤ 0.5
C22U C29A C30G A45U C66A	≤ 0.5
C27A A37C G41A C49U C60G	≤ 0.5
G10A A45G U59C	0.616
C22A C60G	0.57
U8A C30G C55G A69U	≤ 0.5
A21G C27A C33G A70C	≤ 0.5
G9A C11A A36C A45U	≤ 0.5
G9C A36U A45C G52A	≤ 0.5
C49U C55A	0.557
U16C U28A C29G G58C	≤ 0.5
U2C G44A U64G	≤ 0.5
C11G A43U A57C C61U	≤ 0.5
C34A G67C	0.782
C30U G48C A65G	0.606
A14C C55U A69C	≤ 0.5
C11G U26A C27A C29G C46A G50A G58A C62U	≤ 0.5
U13C G18C G50C A57U C62U	0.578

Variant	yeast fitness
G6C A15G A37C U64C	≤ 0.5
C22U A36C G67A	≤ 0.5
U8C C29A C34G A36G A37G A40C U47A U64C	≤ 0.5
A20U C29G C49G G63C C66A	≤ 0.5
G12A C29A A57U	≤ 0.5
C4A A20U G23A C66U	≤ 0.5
U8A U16A C27G C33A	≤ 0.5
A36U A37U	0.587
U13A C29U C30G A45C C60A C62A	≤ 0.5
C5G G12A C55U	≤ 0.5
C11A C24U U59G A69C	≤ 0.5
C4A C5U C22U C34A G68A	≤ 0.5
C30A A36U C49U	≤ 0.5
G18C C31U C33G G50C C62U	≤ 0.5
C11A A45C C60A C62G	≤ 0.5
C11U C46U C55A	≤ 0.5
C22G C31U A43U G51A C61A	≤ 0.5
C4G C24U C33G C62U A65U C66U A69C	≤ 0.5
C24U G25C C30U	≤ 0.5
U3C G18C C31G	≤ 0.5
C5G C33G C34U A36C A43G G52C C60U	≤ 0.5
G9A C31U A37C G63A	≤ 0.5
G10C C22A C24G G52A	≤ 0.5
U7C G41A A42C A57C	≤ 0.5

Variant	yeast fitness
A21C A45C C49U A69U	≤ 0.5
G10C A40G A65C	≤ 0.5
C34U G52C	≤ 0.5
C33G C61A C62U	≤ 0.5
G12C G67C	0.825
A15C C29U C31A G51C	≤ 0.5
C5G G23C C33U G39A A43C	≤ 0.5
A37G A40G A70U	≤ 0.5
U26G U32C A45G C46U U53G C66U A69U	≤ 0.5
C30U U47A A70G	≤ 0.5
U35G C60A	≤ 0.5
A20U C33A C49U A65U A70U	≤ 0.5
U2G A45C C49U C55U	≤ 0.5
G6A A15G G63C	≤ 0.5
C30G G48A	0.633
C11U A14G U28C C61A	≤ 0.5
A15C U16G A37C C66A	≤ 0.5
C22G C34A G67U	≤ 0.5
C29A A37U C46G	≤ 0.5
G12A C49A C60G	≤ 0.5
U16G A21C G25C A37C A40U	≤ 0.5
C22U G25A C34U A57U A65C C66G	≤ 0.5
C27A C60U C61G A65G	0.598
A14G C30G C46U C60G	≤ 0.5

Variant	yeast fitness
C24U G25C C31A C33G	≤ 0.5
C4A C30G A40U G44A G50A C55U C66U	≤ 0.5
C4A A14U A20C U28G G68C	≤ 0.5
U7C A15U G48A C49U C62U	≤ 0.5
C5U C11A G50C C66U	≤ 0.5
C24U C31A U54C A57U	0.547
G17C C62U A65C	0.593
U47A C55G C66G	0.639
A20U U26A	0.754
C4U A14G C24G C31U C55A	≤ 0.5
A15C C31A G50A	≤ 0.5
G10A A20G U26C G39A G50C	≤ 0.5
G39A A42G C66U	≤ 0.5
A14C C31U A69U	≤ 0.5
G9A C61U	0.949
C27U C34G A45U U53A C60A	≤ 0.5
G18C A21U U26C G51C	0.739
U8A A15U C27G A36G A70C	≤ 0.5
C5G A14U C33G A43U U54C C66U	≤ 0.5
C11U G17C C30A C33G C60A	≤ 0.5
C29U A43G G48C C55A	≤ 0.5
A15G A36U C49A G52A	≤ 0.5
G17A C22U C27A C30G C49A	≤ 0.5
